# Laboratory results as given in PubChem BioAssay AID485314 (National Center for Advancing Translational Sciences (NCATS), 2010).
# Out of some 340,000 compounds screened, about 4,500 (1.3%) were called active. Inconclusive means that the source gave no clear call. Such entries were picked first, then a sample of the others. The call rests on the fitted dose curve; in most records, active means well fitted inhibition curve with a large enough effect; inconclusive means small, poorly fitted or top-dose-only effect, or another doubt; inactive means no such curve, though single readings can be large or run the other way. Potencies of inconclusive entries are doubtful fits and often do not repeat.
# Molecular target: DNA polymerase beta (Homo sapiens) (UniProt P06746)
# Assay: qHTS Assay for Inhibitors of DNA Polymerase Beta
# Conditions: Pol beta primer extension/strand displacement, fluorescence kinetic; activity change, negative = inhibition: at 114 µM (top of the series)
# How it was run: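 Curves were derived by four-parameter Hill fits of normalized qHTS data. The kinetic fluorescent primer-extension read was taken at 0 and 10 min after 50 nM substrate, following a 15 min room-temperature preincubation of 10 nM enzyme with compounds.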
# On the % scale 0 is the no-effect control and ±100 the full control effect; potency means the concentration at half of the fitted maximal effect.
Structure (SMILES),Potency,"activity change, negative = inhibition"
CSc1nsc(SCC(=O)Nc2ccc(F)cc2)n1,inactive,–
COc1ccccc1OC(=O)c1cc2ccccc2oc1=O,inactive,–
O=C(/C=C/c1ccc2c(c1)OCO2)NCc1ccco1,"inconclusive: 7.94 µM [inhibitor, full curve]",–
CC(Nc1ccc(-c2nc(-c3ccccn3)no2)cc1[N+](=O)[O-])c1ccccc1 (stereo not drawn),"inconclusive: 39.8 µM [inhibitor, single point]",–
CCCCCn1c(=N)n(CC(O)COc2cccc(C)c2)c2ccccc21 (stereo not drawn),inactive,–
NC(=O)N/N=C/c1cn(-c2ccccc2)nc1-c1cccnc1,"inconclusive: 39.8 µM [inhibitor, partial curve, poor fit]",–
CCC(C)NC(=O)CCS(=O)(=O)c1ccc2c(c1)n(C)c(=O)c(=O)n2C (stereo not drawn),inactive,–
Cc1ccc(-c2ccc(/C=N\NC(=O)c3cc4c(ccc5ccccc54)o3)o2)cc1[N+](=O)[O-],"inconclusive: 6.31 µM [inhibitor, full curve]",–
O=C(Nc1nc2ccccc2n1CCN1CCOCC1)c1ccc(Cl)cc1,inactive,–
Nc1c(C(=O)OCC(=O)Nc2ccc(Cl)cc2[N+](=O)[O-])[nH]c(=O)[nH]c1=O,–,inconclusive: -36.8% [inhibitor]
C(=N/n1c2ccccc2c2ccccc21)/c1ccco1,"inconclusive: 44.7 µM [inhibitor, partial curve]",–
O=C(O)CCCn1cc(NC(=O)c2sc3ccccc3c2Cl)cn1,"inconclusive: 39.8 µM [inhibitor, single point]",–
COc1cccc2c1NC(C(=O)O)C1CC=CC21 (stereo not drawn),active: 1.78 µM,–
Cc1cccc(C(=O)Nc2cccc(OCc3cc(=O)n4c(C)csc4n3)c2)c1,"inconclusive: 3.55 µM [inhibitor, full curve, poor fit]",–
O=C(N/N=C/c1cc2c(cc1Cl)OCO2)c1ccncc1,"inconclusive: 50.1 µM [inhibitor, partial curve, poor fit]",–
COc1ccc(Nc2nc(N)nc(CSc3nc4cc(OC)ccc4s3)n2)cc1,"inconclusive: 20 µM [inhibitor, single point]",–
COc1cc(C2NC(=O)NC(c3ccccc3)=C2C(C)=O)cc(Cl)c1OCC(=O)O (stereo not drawn),inactive,–
COc1ccc(Cl)cc1NC(=O)c1c(NCc2ccc(C)o2)sc2c1CCCC2,inactive,–
Cc1ccc(C(=O)c2coc3c2C(=O)C(=O)c2ccccc2-3)cc1,inactive,–
Cc1ccc(CN(Cc2ccco2)C(=O)c2oc3c(C)c(C)ccc3c2C)cc1,"inconclusive: 35.5 µM [inhibitor, partial curve]",–
CCC(C)NC(=O)CSc1nc2cc3c(cc2c(=O)n1CCCC(=O)NCc1ccc2c(c1)OCO2)OCO3 (stereo not drawn),inactive,–
COc1cc(/C=C/c2ccc3cccc(O)c3n2)ccc1O,"inconclusive: 89.1 µM [inhibitor, single point]",–
O=c1cc(-c2ccc([N+](=O)[O-])cc2)c2cc3c(cc2[nH]1)OCCO3,"inconclusive: 39.8 µM [inhibitor, full curve, poor fit]",–

Structure (SMILES),Potency,"activity change, negative = inhibition"
N#Cc1c(SC(C(=O)O)c2ccccc2)nc2c(c1-c1cccs1)CCCC2 (stereo not drawn),–,inconclusive: -31.7% [inhibitor]
COc1ccccc1NC(=O)CSc1nnc2c3ccccc3n(C)c2n1,inactive,–
Nc1nc(SCc2ccccc2Cl)nc2nc3c(cc12)CCCC3,"inconclusive: 56.2 µM [inhibitor, partial curve]",–
Cc1ccccc1Nc1nc(N)nc(COC(=O)CC2CC3CCC2C3)n1 (stereo not drawn),"inconclusive: 89.1 µM [inhibitor, single point]",–
COc1cccc(-c2nnc(NC(=O)c3cccc(F)c3)o2)c1,"inconclusive: 3.16 µM [inhibitor, full curve]",–
CC(=O)Nc1ccc(N(C(=O)c2ccco2)C(C(=O)NC2CCCC2)c2ccc(N(C)C)cc2)cc1 (stereo not drawn),"inconclusive: 0.1 µM [inhibitor, full curve, poor fit]",–
CCCOc1ccc(/C(O)=C2/C(=O)C(=O)N(c3ccccn3)C2c2ccc(OC)cc2)cc1C (stereo not drawn),"inconclusive: 63.1 µM [inhibitor, single point]",–
CCOc1ccc(OCCC(=O)OCC(=O)NCc2ccccc2)cc1,"inconclusive: 79.4 µM [inhibitor, single point]",–
O=C(O)[C@H](Cc1ccccc1)NC(=O)N1CCN(c2ccccc2)CC1,"inconclusive: 70.8 µM [inhibitor, single point]",–
O=C(CSc1ccc(Cl)cc1)Nc1cccc(NC(=O)c2ccco2)c1,"inconclusive: 0.282 µM [inhibitor, full curve, poor fit]",–
COc1ccc(CN2C(=O)C(NC(=O)c3ccccc3OC)(C(F)(F)F)N=C2c2ccccc2)cc1 (stereo not drawn),inactive,–
CCc1ccc(NC(=O)CCn2cnc3ccccc3c2=O)cc1,"inconclusive: 31.6 µM [inhibitor, full curve]",–
COc1ccc(N2Cc3cccc(C(=O)NC(C)CCc4ccco4)c3C2=O)cc1 (stereo not drawn),active: 7.94 µM,–
Cc1cc(C)c2ccc(Cl)cc2n1,"inconclusive: 70.8 µM [inhibitor, single point]",–
O=C(Cn1c(=O)n(-c2ccc(Cl)cc2)c(=O)c2c3c(sc21)CCC3)c1ccccc1,"inconclusive: 89.1 µM [inhibitor, single point]",–
Cc1ccc(N(CC(=O)NC2CCCCC2)C(=O)CNC(=O)c2ccco2)c(C)c1,"inconclusive: 100 µM [inhibitor, single point]",–
CCN(CC)C(=O)C1CCCN(Cc2ccc3ccccc3c2)C1 (stereo not drawn),"inconclusive: 0.141 µM [inhibitor, full curve, poor fit]",–
COc1cc(NS(=O)(=O)c2ccc3ccccc3c2)c2ncccc2c1,"inconclusive: 7.94 µM [inhibitor, partial curve, poor fit]",–
CC(C)c1ccc(OCc2cc(=O)n3c(-c4ccccc4)csc3n2)cc1,active: 20 µM,–
COc1cc(-c2cc(OC)c3c(C)oc(C)c3c(=O)c2)ccc1OC(=O)c1cccc(Cl)c1,inactive,–
Cc1ccc(O)c(C(=O)c2cc(C(=O)NCCc3ccccc3)c(=O)n(CCc3ccccc3)c2)c1,"inconclusive: 1.12 µM [inhibitor, full curve, poor fit]",–
CN(C)CCCNc1ncnc2sc(-c3ccccc3)cc12,–,inconclusive: -33.7% [inhibitor]
COc1ccc(C(=O)Nc2ccc3nc(C)sc3c2)cc1OC,"inconclusive: 15.8 µM [inhibitor, full curve]",–

# Some of the entries so far, bar-delimited.
Structure (SMILES) | Potency | activity change, negative = inhibition
Cc1cc(C)c2ccc(Cl)cc2n1 | inconclusive: 70.8 µM [inhibitor, single point] | –
O=C(Cn1c(=O)n(-c2ccc(Cl)cc2)c(=O)c2c3c(sc21)CCC3)c1ccccc1 | inconclusive: 89.1 µM [inhibitor, single point] | –
Cc1ccc(N(CC(=O)NC2CCCCC2)C(=O)CNC(=O)c2ccco2)c(C)c1 | inconclusive: 100 µM [inhibitor, single point] | –

# Additional entries

Structure (SMILES),Potency,"activity change, negative = inhibition"
Cc1ccc(C)c(OCc2nnc(SCC(=O)NC(=O)NCc3ccco3)o2)c1,"inconclusive: 0.158 µM [inhibitor, full curve, poor fit]",–
CNS(=O)(=O)c1cccc(C(=O)OCC(=O)/C=C2/N(C)c3ccccc3C2(C)C)c1,"inconclusive: 89.1 µM [inhibitor, single point]",–
CN(C)/C=C/C(=O)c1ccc(Oc2ccccc2)cc1,"inconclusive: 56.2 µM [inhibitor, partial curve, poor fit]",–
COc1ccc(Cc2nnc(NS(=O)(=O)c3ccc([N+](=O)[O-])cc3)s2)cc1,"inconclusive: 31.6 µM [inhibitor, full curve]",–
C=CCc1cc(S(=O)(=O)c2ccc(O)c(CC=C)c2)ccc1O,"inconclusive: 3.98 µM [inhibitor, single point]",–
Clc1ccc(CNC2CCCC2)cc1,"inconclusive: 100 µM [inhibitor, single point]",–
Cc1oc(C)c2c(=O)ccc3c(c12)OC(N)=C(C#N)C3c1ccc(F)cc1 (stereo not drawn),active: 20 µM,–
COc1cccc2c(=O)c3cccc(N)c3[nH]c12,active: 25.1 µM,–
CC1CCCN(Cc2c(O)ccc3c2O/C(=C\c2ccco2)C3=O)C1 (stereo not drawn),active: 12.6 µM,–
COc1cccc(NC(=O)CSc2nnc(C)s2)c1,"inconclusive: 79.4 µM [inhibitor, partial curve]",–
CCOc1ccccc1N(CC(=O)NCCSc1ccccc1)S(C)(=O)=O,inactive,–
Cc1ccc2nc3c(c(Nc4ccc(O)cc4)c2c1)CCC3,"inconclusive: 35.5 µM [inhibitor, single point]",–
Cn1ccnc1C(O)c1ccccc1 (stereo not drawn),inactive,–
COc1ccc(N(CC(=O)NCCSCc2cccc(Cl)c2)S(C)(=O)=O)cc1,"inconclusive: 63.1 µM [inhibitor, single point]",–
Oc1ccc(/C=N\Nc2cc(N3CCOCC3)nc(N3CCOCC3)n2)c(O)c1,"inconclusive: 70.8 µM [inhibitor, single point]",–
Cc1ccc(/C=C/c2nc3ccccc3[nH]2)o1,inactive,–
COC(=O)c1ccc(CSc2nc(N3CCOCC3)c3c(c2C#N)CC(C)(C)OC3)o1,"inconclusive: 22.4 µM [inhibitor, full curve, poor fit]",–
COc1cc2[nH]c(C(=O)N3CC(C)OC(C)C3)cc2c(OC)c1OC (stereo not drawn),"inconclusive: 0.708 µM [inhibitor, full curve, poor fit]",–
CCOc1ccc(NS(=O)(=O)c2ccc3[nH]cc(C(=O)NCC4CCCO4)c(=O)c3c2)cc1 (stereo not drawn),"inconclusive: 25.1 µM [inhibitor, partial curve]",–
FC(F)C(F)(F)C(F)(F)C(F)(F)c1cc(-c2ccccc2)n[nH]1,"inconclusive: 56.2 µM [inhibitor, partial curve]",–
Cc1cc(-c2nnc(SCC(=O)Nc3ccc(F)cc3F)n2N)n[nH]1,"inconclusive: 0.141 µM [inhibitor, full curve, poor fit]",–
C#CCOCCOCCOCCNc1nc(N2CCN(C(=O)[C@H](CCC(=O)O)n3cc(C(N)Cc4ccc(O)cc4)nn3)CC2)nc(N2CCN(C(=O)[C@H](Cc3cc4ccccc4[nH]3)n3cc(C(N)[C@H](C)CC)nn3)CC2)n1 (stereo partly drawn),inactive,–
